Reference: paper PMC11066113
Results are given in words; binding and its absence hold for the method and conditions named. For some assays here: Binding can be weak; no strength is given. For some assays here: In cells and extracts the contact can be indirect.

Amino acid sequences for entries named in this document (tags omitted). A change or cut given only in a name is not applied to a line headed by its entry. Residues count along the entry.
UniProt O00206, residues 24-839: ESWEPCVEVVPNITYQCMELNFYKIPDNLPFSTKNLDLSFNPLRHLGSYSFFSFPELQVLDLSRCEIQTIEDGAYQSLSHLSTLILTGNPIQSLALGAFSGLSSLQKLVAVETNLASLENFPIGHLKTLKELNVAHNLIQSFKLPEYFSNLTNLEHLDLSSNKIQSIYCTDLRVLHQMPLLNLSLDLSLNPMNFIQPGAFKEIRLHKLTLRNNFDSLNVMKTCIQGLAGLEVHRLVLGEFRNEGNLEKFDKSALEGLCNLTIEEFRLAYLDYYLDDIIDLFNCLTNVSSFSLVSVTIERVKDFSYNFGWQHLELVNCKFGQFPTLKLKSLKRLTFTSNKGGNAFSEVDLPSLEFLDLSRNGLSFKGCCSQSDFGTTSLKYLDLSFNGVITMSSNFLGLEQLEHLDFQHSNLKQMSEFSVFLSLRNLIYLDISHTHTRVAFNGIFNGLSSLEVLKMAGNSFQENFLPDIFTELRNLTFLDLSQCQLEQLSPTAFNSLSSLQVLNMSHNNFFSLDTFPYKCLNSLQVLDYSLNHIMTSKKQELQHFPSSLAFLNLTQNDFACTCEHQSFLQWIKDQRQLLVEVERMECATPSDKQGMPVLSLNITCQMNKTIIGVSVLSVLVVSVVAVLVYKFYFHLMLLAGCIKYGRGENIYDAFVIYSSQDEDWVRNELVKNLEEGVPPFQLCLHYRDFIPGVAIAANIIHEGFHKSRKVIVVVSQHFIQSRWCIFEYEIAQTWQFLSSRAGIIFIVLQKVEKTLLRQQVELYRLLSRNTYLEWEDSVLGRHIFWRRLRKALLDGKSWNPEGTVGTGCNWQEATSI
UniProt Q9QUK6, residues 26-835: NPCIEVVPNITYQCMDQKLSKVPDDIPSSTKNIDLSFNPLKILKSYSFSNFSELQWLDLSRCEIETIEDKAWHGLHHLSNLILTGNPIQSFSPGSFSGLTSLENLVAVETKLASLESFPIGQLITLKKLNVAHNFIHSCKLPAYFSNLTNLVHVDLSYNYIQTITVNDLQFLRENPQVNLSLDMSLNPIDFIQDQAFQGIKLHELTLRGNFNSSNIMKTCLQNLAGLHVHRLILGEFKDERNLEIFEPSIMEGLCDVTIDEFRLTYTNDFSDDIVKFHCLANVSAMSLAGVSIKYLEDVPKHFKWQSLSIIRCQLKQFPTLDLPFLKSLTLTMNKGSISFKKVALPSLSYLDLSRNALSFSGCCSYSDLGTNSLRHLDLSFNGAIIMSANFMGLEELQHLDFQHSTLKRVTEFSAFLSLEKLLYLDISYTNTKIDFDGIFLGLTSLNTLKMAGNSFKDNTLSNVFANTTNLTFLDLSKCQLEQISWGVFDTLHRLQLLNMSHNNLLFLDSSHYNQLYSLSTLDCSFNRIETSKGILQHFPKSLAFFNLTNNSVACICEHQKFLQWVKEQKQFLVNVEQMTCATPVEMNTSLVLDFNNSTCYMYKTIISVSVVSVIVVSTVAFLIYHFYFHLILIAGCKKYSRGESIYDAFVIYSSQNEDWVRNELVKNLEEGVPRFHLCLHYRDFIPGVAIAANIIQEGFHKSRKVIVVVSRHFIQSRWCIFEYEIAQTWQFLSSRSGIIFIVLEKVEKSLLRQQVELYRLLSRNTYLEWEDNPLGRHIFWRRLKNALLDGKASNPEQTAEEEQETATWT
UniProt Q172F2: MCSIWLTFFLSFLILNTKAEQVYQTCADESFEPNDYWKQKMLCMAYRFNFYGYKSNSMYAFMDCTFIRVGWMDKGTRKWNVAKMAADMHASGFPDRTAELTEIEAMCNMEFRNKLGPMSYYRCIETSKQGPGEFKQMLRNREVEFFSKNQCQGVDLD

Assays:
[1] = target: T1, human TLR6 extracellular domain (human) (UniProt Q9Y2C9); test: co-IP; lysate of HEK293T cells transfected with a Myc-tagged TLR ECD incubated with 80 ng purified V5-tagged AaNRP at 4 °C, precipitated with anti-Myc tag antibody (magnetic beads), five washes with IP lysis buffer, blots for V5 and Myc; only the binder purified
T1 sequence: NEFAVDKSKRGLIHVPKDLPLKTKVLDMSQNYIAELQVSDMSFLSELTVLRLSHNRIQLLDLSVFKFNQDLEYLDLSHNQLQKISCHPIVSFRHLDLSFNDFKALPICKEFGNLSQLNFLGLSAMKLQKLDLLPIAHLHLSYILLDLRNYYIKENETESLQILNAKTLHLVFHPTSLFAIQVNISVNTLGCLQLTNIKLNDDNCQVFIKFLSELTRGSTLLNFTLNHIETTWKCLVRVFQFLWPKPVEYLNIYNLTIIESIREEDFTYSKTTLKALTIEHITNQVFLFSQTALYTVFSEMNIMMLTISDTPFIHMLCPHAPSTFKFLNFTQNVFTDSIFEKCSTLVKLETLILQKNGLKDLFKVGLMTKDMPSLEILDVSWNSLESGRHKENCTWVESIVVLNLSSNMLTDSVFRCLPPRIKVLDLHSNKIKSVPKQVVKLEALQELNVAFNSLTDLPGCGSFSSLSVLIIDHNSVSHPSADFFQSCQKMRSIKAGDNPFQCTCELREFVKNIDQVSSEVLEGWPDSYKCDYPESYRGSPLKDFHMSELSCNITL

[2] = target: T2, human TLR1 (on transfected HEK293T cells) (human) (UniProt Q15399); test: flow cytometry on cells; HEK293T cells transfected with TLR or vector plasmids incubated with AaNRP (1 μg/10^6 cells) at 4 °C for 2 h; detected with anti-AaNRP polyclonal antibody and PE-labeled secondary antibody; proportion of PE+ cells, vector control deducted; only the binder purified
T2 sequence: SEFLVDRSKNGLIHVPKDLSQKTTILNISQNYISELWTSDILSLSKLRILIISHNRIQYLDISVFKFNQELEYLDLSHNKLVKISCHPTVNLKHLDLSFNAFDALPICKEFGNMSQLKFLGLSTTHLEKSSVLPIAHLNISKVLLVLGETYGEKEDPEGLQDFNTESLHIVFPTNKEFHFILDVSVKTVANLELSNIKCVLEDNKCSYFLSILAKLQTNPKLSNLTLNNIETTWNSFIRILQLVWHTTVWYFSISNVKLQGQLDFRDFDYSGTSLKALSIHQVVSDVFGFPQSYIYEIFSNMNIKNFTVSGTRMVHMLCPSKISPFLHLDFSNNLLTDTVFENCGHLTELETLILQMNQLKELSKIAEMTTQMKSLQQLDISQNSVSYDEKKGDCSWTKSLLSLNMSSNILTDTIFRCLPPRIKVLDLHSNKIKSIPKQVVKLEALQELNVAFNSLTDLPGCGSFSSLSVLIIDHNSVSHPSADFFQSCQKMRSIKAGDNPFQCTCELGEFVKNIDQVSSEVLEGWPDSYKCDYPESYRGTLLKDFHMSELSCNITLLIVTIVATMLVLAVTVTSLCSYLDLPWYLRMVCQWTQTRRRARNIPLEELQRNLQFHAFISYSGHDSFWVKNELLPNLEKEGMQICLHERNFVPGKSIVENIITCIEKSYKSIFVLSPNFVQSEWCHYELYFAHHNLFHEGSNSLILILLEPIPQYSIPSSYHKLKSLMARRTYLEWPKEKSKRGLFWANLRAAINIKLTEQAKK

[3] = target: human TLR4 (on transfected HEK293T cells) (human) (UniProt O00206); test: as above
[4] = target: T3, murine TLR1 (on transfected HEK293T cells) (mouse) (UniProt Q9EPQ1); test: as above
T3 sequence: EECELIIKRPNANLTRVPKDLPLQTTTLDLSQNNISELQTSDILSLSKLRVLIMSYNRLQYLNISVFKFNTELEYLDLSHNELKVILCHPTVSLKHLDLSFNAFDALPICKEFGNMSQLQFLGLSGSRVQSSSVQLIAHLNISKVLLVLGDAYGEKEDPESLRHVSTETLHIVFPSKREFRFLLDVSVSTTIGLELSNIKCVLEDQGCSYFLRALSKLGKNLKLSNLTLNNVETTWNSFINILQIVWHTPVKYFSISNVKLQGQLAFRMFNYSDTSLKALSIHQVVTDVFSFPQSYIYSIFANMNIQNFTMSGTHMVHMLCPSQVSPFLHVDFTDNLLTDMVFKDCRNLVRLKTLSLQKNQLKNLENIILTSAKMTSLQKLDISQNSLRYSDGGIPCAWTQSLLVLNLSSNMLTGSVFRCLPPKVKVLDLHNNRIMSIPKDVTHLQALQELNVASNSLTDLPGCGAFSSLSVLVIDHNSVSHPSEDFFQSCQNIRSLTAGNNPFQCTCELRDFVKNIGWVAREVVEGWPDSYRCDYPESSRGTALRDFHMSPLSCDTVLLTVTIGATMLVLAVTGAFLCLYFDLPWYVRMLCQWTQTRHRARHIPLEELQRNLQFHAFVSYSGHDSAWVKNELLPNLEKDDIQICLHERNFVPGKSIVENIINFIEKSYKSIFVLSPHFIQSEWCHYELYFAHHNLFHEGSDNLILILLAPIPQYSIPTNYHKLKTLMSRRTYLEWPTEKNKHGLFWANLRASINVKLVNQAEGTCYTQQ

[5] = target: murine TLR4 (on transfected HEK293T cells) (mouse) (UniProt Q9QUK6); test: as above

Substance: A. aegypti Neutrophil Recruitment Protein (AaNRP) (from UniProt Q172F2)
- binding [1]: no binding (tested: 80 ng of purified AaNRP)
- binding [2]: binds
- binding [3]: binds
- binding [4]: binds
- binding [5]: binds
